The values below are quoted from earlier work in US20230165842A1, “NEW USES” (priority 2020, published 2023).

Protein sequences, listed by entry. Tags and fused reporters are not part of them. Residues count along the entry.
UniProt Q9BYF1, 18-805: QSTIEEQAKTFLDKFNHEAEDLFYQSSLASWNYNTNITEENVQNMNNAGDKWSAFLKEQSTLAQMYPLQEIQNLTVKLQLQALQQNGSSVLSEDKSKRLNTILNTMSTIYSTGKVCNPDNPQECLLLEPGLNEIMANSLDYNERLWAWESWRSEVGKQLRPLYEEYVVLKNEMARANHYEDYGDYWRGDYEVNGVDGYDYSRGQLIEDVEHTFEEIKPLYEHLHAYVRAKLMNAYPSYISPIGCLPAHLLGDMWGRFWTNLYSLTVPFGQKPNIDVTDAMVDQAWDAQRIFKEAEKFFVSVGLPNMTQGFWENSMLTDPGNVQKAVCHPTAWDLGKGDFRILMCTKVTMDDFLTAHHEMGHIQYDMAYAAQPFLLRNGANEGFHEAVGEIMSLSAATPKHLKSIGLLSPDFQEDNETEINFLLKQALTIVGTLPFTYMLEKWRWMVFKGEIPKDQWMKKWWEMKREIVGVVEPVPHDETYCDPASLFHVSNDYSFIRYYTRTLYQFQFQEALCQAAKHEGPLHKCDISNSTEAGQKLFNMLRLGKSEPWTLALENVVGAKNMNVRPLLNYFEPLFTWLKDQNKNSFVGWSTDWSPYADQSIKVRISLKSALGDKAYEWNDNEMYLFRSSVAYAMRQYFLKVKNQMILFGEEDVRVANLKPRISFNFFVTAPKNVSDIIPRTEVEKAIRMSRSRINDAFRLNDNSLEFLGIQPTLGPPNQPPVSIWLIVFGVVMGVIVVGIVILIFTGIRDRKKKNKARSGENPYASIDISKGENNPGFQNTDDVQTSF

In data set [1] the test system is SARS-CoV-2. The following applies: Vero E6, 2 h pre-treatment, 24 h.
Data set [2] addresses ACE2 (Homo sapiens, UniProt Q9BYF1).

Molecules are shown by their SMILES. Where two headings read alike, the source gives them in different places.

With `OCCN1CCN(CCCN2c3ccccc3Sc3ccc(C(F)(F)F)cc32)CC1` [Compound 33, fluphenazine], the IC50 in data set [1] (MOI 0.004) was 6.36 µM; in data set [1] (MOI 0.01) it was 8.98 µM.
In the case of `Clc1ccc2c(c1)CCc1cccnc1C2=C1CCNCC1` [Compound 80, desloratadine], the “binding to ACE2” value in data set [2] (cell membrane chromatography and surface plasmon resonance) was “could bind to ACE2”. For the same compound, in data set [2] (compared with loratadine), the “binding affinity to ACE2” value is listed as “much stronger”.

As a reminder, the IC50 is the concentration that inhibits the measured activity by half.
